Entries after “also recorded” stand apart in the source; their conditions may differ. Part of at least one peptide drawing is inferred or uncertain, most often the ends.
Columns and labels:
tubulin [1] = experiment: Microtubule assembly assay (DAPI fluorescence); assay type: biochemical; conditions: 100 μM NV, 100 μM tubulin, 10 μM DAPI, 37° C., versus control without NV
[2] = tested on: intracellular tubulin/microtubule of PC12 cells; experiment: Cellular microtubule co-localization study by confocal microscope; assay type: cell-based, rat; conditions: FITC-NV 100 μM, 16 h
polymerized microtubules = experiment: FITC-NV binding with microtubule at tubulin polymerization; conditions: FITC-NV during polymerization of alexa-568 labeled tubulin with GTP
Procedure: Hexapeptide NV Binding with Microtubule at Tubulin Polymerization
Mixture 1: Alexa Fluor 568-labeled tubulin (0.5 μL, 15 mg mL^−1, 65% labelling ratio), Tubulin (2 μL, 20 mg mL^−1), FITC-NV (0.5 μL, 1 mM), GTP (0.2 μL, […]) and BRB80 (46.8 μL; 80 mM PIPES, 1 mM EGTA; 1 mM MgCl2, pH adjusted to 6.8 by using concentrated KOH solution) were mixed on ice. The mixture was incubated for 30 min on 37° C. water bath.
Mixture 2: Taxol (0.4 μL, 1 mM) and BRB80 (180 μL) were mixed.
Final Mixture: After 30 min incubation 50 μL warmed mixture 2 was added into mixture 1. Then this mixture was separated in a table top centrifuge (7 min, 12000 rpm, Eppendorf 5810R bench-top centrifuge, rotor type F-34-6-38). The coloured pellet was resuspended in warm mixture 2. 10 μL resuspended solution of microtubule was placed on glass cover slip and imaged under inverted fluorescence microscope (NIKON Ti-U) in 40× magnification using ANDOR iXON3 camera.

tubulin [3] = experiment: Tubulin turbidity assay (tubulin polymerization); assay type: biochemical; conditions: 100 μM NV, 20 μM tubulin, GTP, absorbance at 350 nm, versus control without NV

Q: With H-NAVSIQ-NH2 [NV, NH2-NAVSIQ-NH2] as the substance, how does the “rate of increment of DAPI fluorescence (microtubule assembly)” value (tubulin [1]) read?
A: Its value is “higher in presence of NV compare to control”.

Q: What about the “binding with intracellular tubulin/microtubule (co-localization)” value [2] of the same substance?
A: The value was “binds with intracellular tubulin/microtubule”.

Q: And the “effect on microtubule polymerization” value (polymerized microtubules)?
A: The value was “doesn't perturb microtubule polymerization”.

Q: And the “rate of increase of tubulin turbidity” value (tubulin [3])?
A: Its value is “higher than the control; also recorded: tubulin turbidity increases”.

— patent publication US10100082B2, “Hexapeptide for neuroprotection against a β toxicity” (Council of Scientific and Industrial Research, priority 2016, dated 2018)
